Patent publication US20170027858A1, “DEVICE AND METHOD TO CONTROL RELEASE OF COMPOUND” (PURDUE RESEARCH FOUNDATION, priority 2014, published 2017)
Where a name gives a salt, the structure may show the parent alone. At least one compound was matched to its structure with a doubt left.

Key:
[1] = tested on: BV-2 cells; test: ROS production in hydrogen peroxide insulted BV-2 microglial cells; assay type: cell-based, murine; conditions: 20 ug/ml hydrogen peroxide; direct application of 10 ug/ml DEX
[2] = tested on: BV-2 cells; conditions: LPS (1 ug/ml) induced microglia; DEX 1 ug/ml added directly; cited from earlier work

C[C@@H]1C[C@H]2[C@@H]3CCC4=CC(=O)C=C[C@]4(C)[C@@]3(F)[C@@H](O)C[C@]2(C)[C@@]1(O)C(=O)CO [DEX, dexamethasone 21-phophate disodium salt]
enhanced production of ROS [1]: reduced | ROS production [2]: effectively suppressed ROS production
